Experimental data reported in PubChem BioAssay AID1259415 (National Center for Advancing Translational Sciences (NCATS), 2018).
In all, about 410,000 compounds went through this assay and about 18,000 (4.4%) were called active. The inconclusive results got no clear call from the source; some entries with a clear call stand among them for comparison. Cut-off read from the data, not from the text of the source: active = activity change below about -60%; inconclusive = no clear call, values can overlap the other calls; inactive = above about -39%.

Assay: qHTS Assay for inhibitors of the human cytomegalovirus (HCMV)
Conditions: HFF cells, HCMV-luciferase reporter, 72 h; at 57.5 µM; stronger effect = lower value
Description: NCGC Assay Overview: Infection with human cytomegalovirus (HCMV) continues to pose significant threats for pregnant women and immunocompromised hosts. HCMV causes serious morbidity and mortality in transplant recipients, and congenital HCMV is the leading infectious cause of mental retardation and deafness in children. In the 1990s, the annual costs associated with the disease burden of congenital CMV were estimated at around $2 billion. A HCMV vaccine is not available yet and HCMV therapies result in intolerable side effects and emergence of drug resistant viruses. […] Towards this goal we have developed and characterized a luciferase HCMV reporter that was initially used in 96 well plates and then optimized to 1536-well plates for utilization in screening of the MLSMR collection, the NGCG diversity collection and the NCGC Pharmaceutical Collection of approved and investigational drugs.
NCGC Assay Protocol Summary:
This is a cell-based assay for HCMV inhibition in HFFs cells. The screening used 2 compound doses and the HCMV-luciferase at MOI of 1 PFU/cell. Cells were treated and infected with HCMV. At 72 h post infection cell lysates were collected and luciferase activity was determined using the Glomax-Multi + Detection System (Promega, Madison, WI). Data were normalized to the controls for basal activity (buffer only) and known HCMV inhibitors Salinmoycin.
1536-well assay protocol for the assay:
(1) Add 3 ul CMV/HFF cell culture. 1000 cells/well in DMEM nirmal media.
(2) Incubate 16 hr at 37C.
(3) Add 23 nl control compound, 10uM of Salinomycin.
(4) Add 23 nl compounds in DMSO solution.
(5) Add 3 ul CMV suspension. Final 1 puf/ul, Virus stock 2000pfu/ul
(6) Incubate 72 hrs at 37C.
(7) Add 4 ul OneGlo Luc Reagent.
(8) Incubate 5 min at room temperature.
% is set by controls: 0 for no effect and ±100 for the full control effect.

| Compound | activity change, negative = inhibition |
| --- | --- |
| CCCCn1nnnc1SCC(=O)N1CCN(C(=O)c2ccco2)CC1 | inconclusive: -40.9% |
| Cc1ccc(NC(=O)c2c(-c3c(F)cccc3Cl)noc2C)cc1F | inactive: 25.4% |
| CC(C)=CCc1cc([C@@H]2COc3c(ccc4c3C=CC(C)(C)O4)C2)c(O)cc1O | active: -106% |
| CSc1ccc(/C=C/c2cc(=O)c3ccccc3[nH]2)cc1 | inactive: -25.3% |
| N=C1C(c2nc(-c3ccc(Br)cc3)cs2)=C(O)CN1NC(=O)c1ccc([N+](=O)[O-])cc1 | active: -102% |
| Cc1ccc(NC(=O)c2c(C)oc3ccc(O)c(CN4CCCCCC4)c23)cc1 | active: -85.3% |
| CC[C@H](CO)Oc1cc(NCc2cccc(N)c2)c2ncn(C(C)C)c2c1 | inactive: -21.1% |
| Cc1ccc(NC(=O)NCc2cccnc2)cc1Cl | inactive: 65.1% |
| CCOC(=O)c1csc(NC(=O)Nc2cccc(Cl)c2)n1 | inconclusive: -47.4% |
| COc1ccccc1CCNC(=O)C(=O)c1cn(CC(=O)N2CCCC2)c2ccccc12 | inconclusive: -51.2% |
| CCCCCCCn1ccc(O)c(CC(=O)OC)c1=O | inactive: 45.2% |
| CN1CCN(c2cc(N3CCNCC3)ccc2[N+](=O)[O-])CC1 | inconclusive: -42% |
| CN(C)CCOc1ccc2c(c1)C(=O)C(=Cc1ncc([N+](=O)[O-])n1C)C2 | active: -98.5% |
| O=C(Nc1ccc(Cl)c(S(=O)(=O)N2CCOCC2)c1)c1ccc(Cl)nc1 | inconclusive: -51.2% |
| COc1cc(S(=O)(=O)Nc2ccc(C)cc2)ccc1N=Cc1c(C)[nH]n(-c2ccccc2)c1=O | inconclusive: -44.4% |
| CN(c1ccccc1C(=O)Nc1cccc([N+](=O)[O-])c1)S(=O)(=O)c1ccccc1 | inactive: 36.8% |
| CC(=O)N[C@@H]1C=C[C@@H](CC(=O)NCc2ccc(Cl)cc2)O[C@@H]1CO | inactive: -31.7% |
| CSc1ccc(CN2CCN(Cc3ccccc3)C(CCO)C2)cc1 (stereo unspecified) | inconclusive: -46.7% |
| Cc1cc(C)nc(SCC(=O)Nc2ccnc3ccccc23)n1 | active: -88.9% |

| Compound | activity change, negative = inhibition |
| --- | --- |
| COc1ccc(-c2onc(C)c2C)cc1S(=O)(=O)N1CCN(c2ccc(Cl)cc2)CC1 | inconclusive: -51.6% |
| Cc1cc(C)n(-c2ccc(C(=O)Nc3cc(S(=O)(=O)N(C)C)ccc3Cl)cc2)n1 | inconclusive: -45% |
| O=C(N/N=C/c1ccncc1)c1ccc(NC(=O)c2cccc(Cl)c2)cc1 | inconclusive: -43.5% |
| Cc1cccc(Nc2nc(NCc3ccco3)nc(N)c2[N+](=O)[O-])c1 | inactive: -14.8% |
| O=C(CN1CCN(S(=O)(=O)c2ccccc2)CC1)Nc1ccccc1C(=O)c1ccccc1 | inconclusive: -42.1% |
| O=C(CCCN1C(=O)/C(=C\c2ccccc2)SC1=S)Nc1ccc(O)cc1 | active: -95.8% |
| Cc1cc(=O)n2c(sc3ccccc32)c1C#N | active: -90.5% |
| O=C(Nc1nnc(C2CCCC2)s1)C1CCC1 | inconclusive: -51.3% |
| CCn1cc(SCC(=O)NC2CCCC2)c2ccccc21 | inconclusive: -40.7% |
| COc1ccc(/C=N/NC(=S)NCCc2ccccc2)cc1 | inconclusive: -41.4% |
| CCCn1c(CCC(=O)O)nc2cc(S(=O)(=O)N3CCCC3)ccc21 | inactive: -10.9% |
| Cc1onc(C(=O)N2CCN(c3ccccc3)CC2)c1[N+](=O)[O-] | inconclusive: -57.5% |
| COc1ccc2c(c1OC)C(=O)N1c3ccccc3C(=O)N(c3ccccc3)C21 (stereo unspecified) | inactive: -3.89% |
| CC(C)C(=O)N1CCN(c2ccc(NC(=O)c3cccs3)cc2Cl)CC1 | active: -85.5% |
| CCCN(C(=O)CCCSc1nc2ccccc2[nH]1)c1c(N)n(Cc2ccccc2)c(=O)[nH]c1=O | inconclusive: -47.5% |
| Cc1ccc(-n2c(SCC(=O)NNC(=S)Nc3ccccc3)nc3ccccc3c2=O)cc1 | inconclusive: -42.3% |
| O=C(Nc1ccc(C(=O)OCc2cc(=O)n3c4c(sc3n2)CCCC4)cc1)c1ccc(Cl)cc1 | inconclusive: -40.2% |
| CC(C)c1ccc(NC(=O)Nc2csc3c2CCCC3)cc1 | inconclusive: -42.4% |
| Cc1cccc(Cn2c(N(C)Cc3ccccc3)nc3c2c(=O)[nH]c(=O)n3C)c1 | inactive: -7.07% |

Molecules shown so far containing an aryl methoxy group (five):

| Compound | activity change, negative = inhibition |
| --- | --- |
| COc1ccccc1CCNC(=O)C(=O)c1cn(CC(=O)N2CCCC2)c2ccccc12 | inconclusive: -51.2% |
| COc1cc(S(=O)(=O)Nc2ccc(C)cc2)ccc1N=Cc1c(C)[nH]n(-c2ccccc2)c1=O | inconclusive: -44.4% |
| COc1ccc(-c2onc(C)c2C)cc1S(=O)(=O)N1CCN(c2ccc(Cl)cc2)CC1 | inconclusive: -51.6% |
| COc1ccc(/C=N/NC(=S)NCCc2ccccc2)cc1 | inconclusive: -41.4% |
| COc1ccc2c(c1OC)C(=O)N1c3ccccc3C(=O)N(c3ccccc3)C21 (stereo unspecified) | inactive: -3.89% |

(cont.)

| Compound | activity change, negative = inhibition |
| --- | --- |
| CCN(CC)S(=O)(=O)c1ccc(N/N=C/c2ccccc2OCC(=O)O)c([N+](=O)[O-])c1 | inactive: 51.6% |
| Cc1cc(C)cc(N(CCC#N)C(=O)COC(=O)c2ccccc2SCC(=O)N2CCCC2)c1 | inactive: 43.8% |
| CC(C)c1csc(CN2CCCC(CNC(=O)c3cccc4ccccc34)C2)n1 (stereo unspecified) | inconclusive: -53.6% |
| Cc1cc(F)ccc1NC(=O)c1cnccn1 | inactive: -33.7% |
| CCOc1[nH]n(-c2ccc(Cl)cc2)c(=O)c1C=NCC(=O)OC | inconclusive: -54.6% |
| COc1cc2[nH]c(=S)nc(NCc3cccc(Cl)c3)c2cc1OC | inconclusive: -45.9% |
| Cc1ccc(NC(=O)Cn2cc3c(n2)CCC(C)C3)cc1C (stereo unspecified) | inactive: 9.29% |
| CC(Sc1nnc(Cc2cccs2)n1C1CCCCC1)C(=O)N1CCc2ccccc21 (stereo unspecified) | inconclusive: -40.3% |
| CC(OC(=O)c1oc2ccccc2c1CSC1CCCCC1)C(=O)NC(N)=O (stereo unspecified) | inconclusive: -40.3% |
| CC(C)(C)C(=O)CSc1nnc(Nc2ccccc2)s1 | inactive: -8.97% |
| CCCN1CCC(N2CCCC(C(=O)O)C2)CC1 (stereo unspecified) | active: -60.5% |
| Cc1cc(Oc2ccc(C(C)(C)C)cc2)nc(N2CCOCC2)n1 | inactive: 3.38% |
| Cc1nn(CC(=O)NCCCN2CCCC2)c(=O)c2nn(-c3ccccc3)c(C)c12 | inconclusive: -57.6% |
| CNC(=O)c1c(O)c2cccc3c2n(c1=O)CCC3 | active: -97.5% |
| Cc1nnc(SCC(=O)N2c3ccccc3CC2C)s1 (stereo unspecified) | inconclusive: -49.2% |
| CC(C(=O)N(C)Cc1ccccc1)N1CCN(C/C=C/c2ccccc2)CC1 (stereo unspecified) | inconclusive: -42% |
| CN(C)/C=N/c1cc(=O)n(C)c(=O)n1Cc1ccccc1 | inactive: 39% |
| CCN1CCN(C(=O)c2ccc(CSc3ccc(C)cc3)cc2)CC1 | inconclusive: -46.2% |
